The source of these data is PMC3418287.

Amino acid sequences for entries named in this document (tags omitted).
UniProt Q15370: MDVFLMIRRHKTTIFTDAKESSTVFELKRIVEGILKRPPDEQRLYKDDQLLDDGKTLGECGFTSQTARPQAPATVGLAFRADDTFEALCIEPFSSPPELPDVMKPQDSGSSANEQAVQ

Test [1] has as its target StrepII-Myc-3xHA-PRAME (HeLaS3 stable line) (human) (UniProt P78395). Kind of test: affinity purification with mass spectrometry; TAG-PRAME purified from HeLaS3 nuclear and cytoplasmic extracts by anti-HA immunoprecipitation; eluates analysed by mass spectrometry; wild type HeLaS3 cells as control.
Test [2] addresses StrepII-Myc-3xHA-PRAME (K562 stable line) (human) (UniProt P78395). Kind of test: affinity purification with mass spectrometry; TAG-PRAME purified from K562 nuclear extracts on crosslinked anti-MYC beads (peptide elution) or anti-HA 12CA5 beads (acidic glycine pH 2.9 elution); eluates analysed by mass spectrometry; wild type K562 cells as control.
Test [3] deals with TAG-TPRKB (K562 stable line) (human) (UniProt Q9Y3C4). Kind of test: affinity purification with mass spectrometry; TAG-LAGE3, TAG-OSGEP, TAG-TP53RK or TAG-TPRKB purified from K562 nuclear extracts by anti-HA immunoprecipitation; eluates analysed by mass spectrometry; wild type K562 cells as control.
For test [4], the target named is T1, TAG-OSGEP (K562 stable line) (human) (UniProt Q9NPF4).
T1 sequence: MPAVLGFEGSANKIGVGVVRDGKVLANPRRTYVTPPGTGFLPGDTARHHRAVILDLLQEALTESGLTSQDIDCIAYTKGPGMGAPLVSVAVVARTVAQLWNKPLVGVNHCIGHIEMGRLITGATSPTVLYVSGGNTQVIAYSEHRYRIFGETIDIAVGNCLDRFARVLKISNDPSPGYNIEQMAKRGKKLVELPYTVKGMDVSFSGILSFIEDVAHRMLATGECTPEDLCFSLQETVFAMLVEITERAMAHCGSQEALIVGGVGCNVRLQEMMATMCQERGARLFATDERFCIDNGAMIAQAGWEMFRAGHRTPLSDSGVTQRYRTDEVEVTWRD
Described as above.

For test [5], the target named is T2, TAG-TP53RK (K562 stable line) (human) (UniProt Q96S44).
T2 sequence: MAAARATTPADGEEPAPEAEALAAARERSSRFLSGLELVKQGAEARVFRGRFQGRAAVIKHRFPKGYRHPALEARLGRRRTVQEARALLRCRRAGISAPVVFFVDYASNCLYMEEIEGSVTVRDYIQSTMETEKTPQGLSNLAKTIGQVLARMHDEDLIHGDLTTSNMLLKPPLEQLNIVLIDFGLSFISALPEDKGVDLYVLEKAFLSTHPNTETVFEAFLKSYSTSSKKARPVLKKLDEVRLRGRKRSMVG
The description is as above.

The target of test [6] is T3, TAG-LAGE3 (K562 stable line) (human) (UniProt Q14657).
T3 sequence: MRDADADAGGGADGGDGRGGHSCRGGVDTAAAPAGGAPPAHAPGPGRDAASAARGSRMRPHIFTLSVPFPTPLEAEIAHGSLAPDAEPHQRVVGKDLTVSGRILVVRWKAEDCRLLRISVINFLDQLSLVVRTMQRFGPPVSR
The test is described as above.

For test [7], the target named is T4, TAG-LAGE3 (HeLaS3 stable line) (human) (UniProt Q14657).
T4 sequence: T3 sequence
In words: affinity purification with mass spectrometry; TAG-LAGE3 purified from nuclear extracts of HeLaS3 cells (very low to undetectable endogenous PRAME) by anti-HA immunoprecipitation; eluates analysed by mass spectrometry.

For test [8], the target named is StrepII-Myc-3xHA-PRAME (K562 stable line) (human) (UniProt P78395). Kind of test: affinity purification with mass spectrometry; TAG-PRAME purified from K562 nuclear extracts on crosslinked anti-MYC beads (peptide elution) or anti-HA 12CA5 beads (acidic glycine pH 2.9 elution); eluates analysed by mass spectrometry; wild type K562 cells as control. The source holds these as a separate data set.

Test [9] concerns the target StrepII-Myc-3xHA-PRAME (HeLaS3 stable line) (human) (UniProt P78395). In words: affinity purification with mass spectrometry; TAG-PRAME purified from HeLaS3 nuclear and cytoplasmic extracts by anti-HA immunoprecipitation; eluates analysed by mass spectrometry; wild type HeLaS3 cells as control. This is another data set of the same source.
For test [10], the target named is T5, TAG-OSGEP (K562 stable line) (human), Q9NPF4.
T5 chain: T1 sequence
Kind of test: affinity purification with mass spectrometry; TAG-LAGE3, TAG-OSGEP, TAG-TP53RK or TAG-TPRKB purified from K562 nuclear extracts by anti-HA immunoprecipitation; eluates analysed by mass spectrometry; wild type K562 cells as control. To be noted: remark: other sources report otherwise.

Where two headings read alike, the source gives them in different places. Results are given in words; binding and its absence hold for the method and conditions named. In cells and extracts the contact can be indirect. A yes stands for co-enrichment or nearness to the bait. Other partners may have been found. For some of these results: No binding means not detected with the bait. For some of these results: Where a sequence is shown, tags or fusion partners need not be part of it.

Take “Elongin B (TCEB2 Transcription elongation factor B polypeptide 2) (from UniProt Q15370 1-118)”: the binding result in test [1] and in [2] was “binds” throughout.

With “endogenous PRAME (from UniProt P78395 1-509)”, the binding result in test [3] is reported as “no binding”; in test [4] it was “binds”; in test [5], “no binding”; in test [6] it was “binds”.

Regarding “endogenous TPRKB (TP53RK-binding protein) (from UniProt Q9Y3C4 1-175)”, the binding result in test [6] is “binds”; in test [1], “no binding”; in test [7] it was “binds”; in test [2], “no binding”.

B1: endogenous LAGE3 (L antigen family member 3) (protein, UniProt Q14657 1-143)
chain: T3 sequence
As for B1, the binding entry in test [8], in [3] and in [9] was “binds” in each case.

B2: endogenous OSGEP (Probable O-sialoglycoprotein endopeptidase) (protein, UniProt Q9NPF4 1-335)
chain: T1 sequence
In the case of B2, the binding result in [8] and in test [9] was “binds” in each case.

B3: endogenous TP53RK (TP53-regulating kinase) (protein, UniProt Q96S44 1-253)
chain: T2 sequence
Consider B3, for which the binding result in [8] and in [9] was “no binding” in each case.

B4: C14orf142 hypothetical protein LOC84520, Q9BXV9 1-100 (protein)
chain: MELLGEYVGQEGKPQKLRVSCEAPGDGDPFQGLLSGVAQMKDMVTELFDPLVQGEVQHRVAAAPDEDLDGDDEDDAEDENNIDNRTNFDGPSAKRPKTPS
Consider B4, for which, in test [10], the binding entry was “binds”.

B5: C14orf142 hypothetical protein LOC84520 (protein, UniProt Q9BXV9 1-100)
chain: B4 chain
For the molecule B5, the binding result in test [5] is recorded as “binds”.
